Reference: PMC12781872
Results are given in words; binding and its absence hold for the method and conditions named. Some binding calls cover weakened binding; strength is not graded here.

Amino acid sequences for entries named in this document (tags omitted). A change or cut given only in a name is not applied to a line headed by its entry.
UniProt P9WGZ1: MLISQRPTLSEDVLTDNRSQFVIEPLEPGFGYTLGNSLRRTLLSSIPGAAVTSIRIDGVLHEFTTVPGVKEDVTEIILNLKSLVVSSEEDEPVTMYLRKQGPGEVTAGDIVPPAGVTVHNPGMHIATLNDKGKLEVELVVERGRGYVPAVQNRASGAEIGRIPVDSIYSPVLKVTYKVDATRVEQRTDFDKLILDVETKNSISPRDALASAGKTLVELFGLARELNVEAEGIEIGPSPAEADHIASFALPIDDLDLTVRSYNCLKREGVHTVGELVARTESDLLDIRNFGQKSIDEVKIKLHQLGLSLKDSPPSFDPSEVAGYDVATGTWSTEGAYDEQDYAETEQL
UniProt P9WGI1: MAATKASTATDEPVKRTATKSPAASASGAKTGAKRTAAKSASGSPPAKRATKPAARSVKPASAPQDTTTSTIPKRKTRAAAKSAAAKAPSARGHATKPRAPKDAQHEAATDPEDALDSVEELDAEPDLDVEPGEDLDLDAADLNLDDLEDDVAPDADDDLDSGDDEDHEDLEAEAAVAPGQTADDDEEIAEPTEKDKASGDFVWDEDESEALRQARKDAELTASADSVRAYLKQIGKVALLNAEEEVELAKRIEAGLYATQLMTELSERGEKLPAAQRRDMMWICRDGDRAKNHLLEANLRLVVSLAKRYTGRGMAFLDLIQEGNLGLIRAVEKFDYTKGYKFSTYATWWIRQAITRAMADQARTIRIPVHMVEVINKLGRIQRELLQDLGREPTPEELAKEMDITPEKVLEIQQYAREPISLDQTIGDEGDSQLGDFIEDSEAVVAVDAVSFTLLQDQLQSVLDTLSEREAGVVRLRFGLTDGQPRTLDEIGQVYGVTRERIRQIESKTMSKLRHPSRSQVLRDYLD
UniProt P9WHJ5: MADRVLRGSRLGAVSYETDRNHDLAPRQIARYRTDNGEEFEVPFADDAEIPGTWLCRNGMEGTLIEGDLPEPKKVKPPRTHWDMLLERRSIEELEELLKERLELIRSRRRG

Key:
[1] = biological target: Mycobacterium tuberculosis RNA polymerase core (α2ββ'ω), wildtype (Mycobacterium tuberculosis) (UniProt P9WGZ1); assay: native gel or EMSA; both purified
[2] = biological target: Mtb RNAP-σ^A holoenzyme (α2ββ'ω σ^A) (Mycobacterium tuberculosis) (UniProt P9WGZ1); assay: native gel or EMSA; both purified

Substance | binding [1] | binding [2]
Alexafluor-488 labelled Mtb σ^A (from UniProt P9WGI1 1-528) | binds | –
Mtb RbpA (from UniProt P9WHJ5 1-111) | – | binds
